Source: patent US20230348376A1 (TEIJIN PHARMA LIMITED, priority 2020, published 2023)

Tested on: rat oligodendrocyte progenitor cells
Experiment: Promotive activity of rat oligodendrocyte progenitor cell differentiation-2 (immunostaining of MBP)
Format: cell-based
Details: vitamin D derivative 2 μM, T3 30 nM
Method: The promotive activity of oligodendrocyte progenitor cell (OPC) differentiation of the vitamin D derivatives was evaluated by immunostaining of MBP.
Subsequently, oligodendrocyte progenitor cell separation medium was added to the flask, and the mixture was similarly shaken for about 22 hours (37° C., 200 rpm), and the supernatant was collected to prepare oligodendrocyte progenitor cells.

| Structure (SMILES) | Significant difference (t-test vs DMSO group) (Test 2) | Significant difference (t-test vs DMSO group) (Test 1) |
| --- | --- | --- |
| C=C1[C@H](O)CC(=C/C=C2\CCC[C@]3(C)[C@@H]([C@H](C)CN4CCCC(O)(C(F)F)C4)CC[C@@H]23)C[C@H]1O (single isomer, unassigned) [Compound C036a] | **** (<0.0001) |  |
| C=C1[C@H](O)CC(=C/C=C2\CCC[C@]3(C)[C@@H]([C@H](C)CN4CCCC(O)(C(F)F)C4)CC[C@@H]23)C[C@H]1O (single isomer, unassigned) [Compound C036b] | *** (<0.001) |  |
| C=C1/C(=C\C=C2/CCC[C@]3(C)[C@@H]([C@H](C)CN4CC[C@H](C(F)F)C4)CC[C@@H]23)C[C@@H](O)C[C@@H]1O [Compound B020, (1R,3S,Z)-5-(2-((1R,3aS,7aR,E)-1-((S)-1-((S)-3-(difluoromethyl)pyrrolidin-1-yl)propan-2-yl)-7a-methyloctahydro-4H-inden-4-ylidene)ethylidene)-4-methylenecyclohexane-1,3-diol] |  | **** (<0.0001) |
| C[C@H](CN1CC[C@H](C(F)F)C1)[C@H]1CC[C@H]2/C(=C/C=C3C[C@@H](O)C[C@H](O)C3)CCC[C@]12C [Compound B022, (1R,3R)-5-(2-((1R,3aS,7aR,E)-1-((S)-1-((S)-3-(difluoromethyl)pyrrolidin-1-yl)propan-2-yl)-7a-methyloctahydro-4H-inden-4-ylidene)ethylidene)cyclohexane-1,3-diol] |  | **** (<0.0001) |
| C=C1[C@H](O)CC(=C/C=C2\CCC[C@]3(C)[C@@H]([C@H](C)CN4CC[C@H](C(F)F)C4)CC[C@@H]23)C[C@H]1O [Compound B023, (1R,3R)-5-(2-((1R,3aS,7aR,E)-1-((S)-1-((S)-3-(difluoromethyl)pyrrolidin-1-yl)propan-2-yl)-7a-methyloctahydro-4H-inden-4-ylidene)ethylidene)-2-methylenecyclohexane-1,3-diol] |  | **** (<0.0001) |
| C=C1/C(=C\C=C2/CCC[C@]3(C)[C@@H]([C@H](C)CN4CC[C@@H](C(F)F)C4)CC[C@@H]23)C[C@@H](O)C[C@@H]1O [Compound B024, (1R,3 S,Z)-5-(2-((1R,3aS,7aR,E)-1-((S)-1-((R)-3-(difluoromethyl)pyrrolidin-1-yl)propan-2-yl)-7a-methyloctahydro-4H-inden-4-ylidene)ethylidene)-4-methylenecyclohexane-1,3-diol] |  | **** (<0.0001) |
| C[C@H](CN1CC[C@@H](C(F)F)C1)[C@H]1CC[C@H]2/C(=C/C=C3C[C@@H](O)C[C@H](O)C3)CCC[C@]12C [Compound B026, (1R,3R)-5-(2-((1R,3aS,7aR,E)-1-((S)-1-((R)-3-(difluoromethyl)pyrrolidin-1-yl)propan-2-yl)-7a-methyloctahydro-4H-inden-4-ylidene)ethylidene)cyclohexane-1,3-diol] |  | **** (<0.0001) |
| C=C1[C@H](O)CC(=C/C=C2\CCC[C@]3(C)[C@@H]([C@H](C)CN4CC[C@@H](C(F)F)C4)CC[C@@H]23)C[C@H]1O [Compound B027, (1R,3R)-5-(2-((1R,3aS,7aR,E)-1-((S)-1-((R)-3-(difluoromethyl)pyrrolidin-1-yl)propan-2-yl)-7a-methyloctahydro-4H-inden-4-ylidene)ethylidene)-2-methylenecyclohexane-1,3-diol] |  | **** (<0.0001) |
| C=C1/C(=C\C=C2/CCC[C@]3(C)[C@@H]([C@H](C)CN4CC[C@H](C(C)(F)F)C4)CC[C@@H]23)C[C@@H](O)[C@H](C)[C@@H]1O [Compound B029, (1R,2S,3S,Z)-5-(2-((1R,3aS,7aR,E)-1-((S)-1-((S)-3-(1,1-difluoroethyl)pyrrolidin-1-yl)propan-2-yl)-7a-methyloctahydro-4H-inden-4-ylidene)ethylidene)-2-methyl-4-methylenecyclohexane-1,3-diol] |  | **** (<0.0001) |
| C[C@H](CN1CC[C@@H](C(C)(F)F)C1)[C@H]1CC[C@H]2/C(=C/C=C3C[C@@H](O)C[C@H](O)C3)CCC[C@]12C [Compound B034, (1R,3R)-5-(2-((1R,3aS,7aR,E)-1-((S)-1-((R)-3-(1,1-difluoroethyl)pyrrolidin-1-yl)propan-2-yl)-7a-methyloctahydro-4H-inden-4-ylidene)ethylidene)cyclohexane-1,3-diol] |  | **** (<0.0001) |
| C=C1/C(=C\C=C2/CCC[C@]3(C)[C@@H]([C@H](C)CN4CC[C@H](CC(F)F)C4)CC[C@@H]23)C[C@@H](O)C[C@@H]1O [Compound B036] |  | **** (<0.0001) |
| C=C1/C(=C\C=C2/CCC[C@]3(C)[C@@H]([C@H](C)CN4CC[C@@H](CC(F)F)C4)CC[C@@H]23)C[C@@H](O)C[C@@H]1O [Compound B037, (1R,3S,Z)-5-(2-((1R,3aS,7aR,E)-1-((S)-1-((S)-3-(2,2-difluoroethyl)pyrrolidin-1-yl)propan-2-yl)-7a-methyloctahydro-4H-inden-4-ylidene)ethylidene)-4-methylenecyclohexane-1,3-diol] |  | **** (<0.0001) |
| C=C1[C@H](O)CC(=C/C=C2\CCC[C@]3(C)[C@@H]([C@H](C)CN4CC[C@H](CC(F)F)C4)CC[C@@H]23)C[C@H]1O [Compound B040, (1R,3R)-5-(2-((1R,3aS,7aR,E)-1-((S)-1-((R)-3-(2,2-difluoroethyl)pyrrolidin-1-yl)propan-2-yl)-7a-methyloctahydro-4H-inden-4-ylidene)ethylidene)-2-methylenecyclohexane-1,3-diol] |  | **** (<0.0001) |
| C=C1[C@H](O)CC(=C/C=C2\CCC[C@]3(C)[C@@H]([C@H](C)CN4CC[C@@H](CC(F)F)C4)CC[C@@H]23)C[C@H]1O [Compound B041, (1R,3R)-5-(2-((1R,3aS,7aR,E)-1-((S)-1-((S)-3-(2,2-difluoroethyl)pyrrolidin-1-yl)propan-2-yl)-7a-methyloctahydro-4H-inden-4-ylidene)ethylidene)-2-methylenecyclohexane-1,3-diol] |  | **** (<0.0001) |
| C[C@H](CN1CC[C@H](CC(F)F)C1)[C@H]1CC[C@H]2/C(=C/C=C3C[C@@H](O)C[C@H](O)C3)CCC[C@]12C [Compound B042, (1R,3R)-5-(2-((1R,3aS,7aR,E)-1-((S)-1-((R)-3-(2,2-difluoroethyl)pyrrolidin-1-yl)propan-2-yl)-7a-methyloctahydro-4H-inden-4-ylidene)ethylidene)cyclohexane-1,3-diol] | **** (<0.0001) | **** (<0.0001) |
| C[C@H](CN1CC[C@H](OC(F)F)C1)[C@H]1CC[C@H]2/C(=C/C=C3C[C@@H](O)C[C@H](O)C3)CCC[C@]12C [Compound B051, (1R,3R)-5-(2-((1R,3aS,7aR,E)-1-((S)-1-((S)-3-(difluoromethoxy)pyrrolidin-1-yl)propan-2-yl)-7a-methyloctahydro-4H-inden-4-ylidene)ethylidene)cyclohexane-1,3-diol] | **** (<0.0001) |  |
| C=C1[C@H](O)CC(=C/C=C2\CCC[C@]3(C)[C@@H]([C@H](C)CN4CC[C@H](OCC(F)F)C4)CC[C@@H]23)C[C@H]1O [Compound B055, (1R,3R)-5-(2-((1R,3aS,7aR,E)-1-((S)-1-((S)-3-(2,2-difluoroethoxy)pyrrolidin-1-yl)propan-2-yl)-7a-methyloctahydro-4H-inden-4-ylidene)ethylidene)-2-methylenecyclohexane-1,3-diol] | **** (<0.0001) |  |
| C[C@H](CN1CC[C@H](OCC(F)F)C1)[C@H]1CC[C@H]2/C(=C/C=C3C[C@@H](O)C[C@H](O)C3)CCC[C@]12C [Compound B057, (1R,3R)-5-(2-((1R,3aS,7aR,E)-1-((S)-1-((S)-3-(2,2-difluoroethoxy)pyrrolidin-1-yl)propan-2-yl)-7a-methyloctahydro-4H-inden-4-ylidene)ethylidene)cyclohexane-1,3-diol] | **** (<0.0001) |  |
| C[C@H](CN1CC[C@@H](OCC(F)F)C1)[C@H]1CC[C@H]2/C(=C/C=C3C[C@@H](O)C[C@H](O)C3)CCC[C@]12C [Compound B058, (1R,3R)-5-(2-((1R,3aS,7aR,E)-1-((S)-1-((R)-3-(2,2-difluoroethoxy)pyrrolidin-1-yl)propan-2-yl)-7a-methyloctahydro-4H-inden-4-ylidene)ethylidene)cyclohexane-1,3-diol] | **** (<0.0001) |  |
| C[C@H](CN1CC[C@@H](CCC(F)F)C1)[C@H]1CC[C@H]2/C(=C/C=C3C[C@@H](O)C[C@H](O)C3)CCC[C@]12C [Compound B064, (1R,3R)-5-(2-((1R,3aS,7aR,E)-1-((S)-1-((R)-3-(3,3-difluoropropyl)pyrrolidin-1-yl)propan-2-yl)-7a-methyloctahydro-4H-inden-4-ylidene)ethylidene)cyclohexane-1,3-diol] | **** (<0.0001) |  |
| C=C1[C@H](O)CC(=C/C=C2\CCC[C@]3(C)[C@@H]([C@H](C)CN4CCC(C(C)(F)F)CC4)CC[C@@H]23)C[C@H]1O [Compound C055, (1R,3R)-5-(2-((1R,3aS,7aR,E)-1-((S)-1-(4-(1,1-difluoroethyl)piperidin-1-yl)propan-2-yl)-7a-methyloctahydro-4H-inden-4-ylidene)ethylidene)-2-methylenecyclohexane-1,3-diol] | **** (<0.0001) |  |
| C[C@H](CN1CCOC2(CC2)C1)[C@H]1CC[C@H]2/C(=C/C=C3C[C@@H](O)C[C@H](O)C3)CCC[C@]12C [Compound D019, (1R,3R)-5-(2-((1R,3aS,7aR,E)-1-((S)-1-(4-oxa-7-azaspiro[2.5]octan-7-yl)propan-2-yl)-7a-methyloctahydro-4H-inden-4-ylidene)ethylidene)cyclohexane-1,3-diol] | **** (<0.0001) |  |
